According to patent publication US12152077B1, “Immunotherapy targeting tumor neoantigenic peptides” (INSTITUT CURIE, priority 2019, dated 2024):

How the values were obtained:
[1] = tested on: TE-exon fusion transcripts; experiment: PCR and sequencing validation of fusion transcripts in LUAD tumor samples and tumor cell lines; parameters: species or system human; key: The status ‘Yes’ or ‘No’ in the table below indicates the presence or absence of the PCR product on the expected size; The status ‘Yes’ or ‘No’ in the table below indicates the presence or absence of the PCR product on the expected size
H1650 cell line = experiment: Killing assay (xCELLigence, cell-index); assay type: cell-based, human; conditions: concluded from killing without external peptide

In the case of AILPKANTV, the “presence of the PCR product on the expected size” value (“presence of the PCR product” for short) ([1]; LUAD tumor cell line H1975) was “No; No; No; No; No; No”.
AMDGKELSL was tested, and the “presence of the PCR product” value ([1]; LUAD tumor cell line H1975) was “No; No; No; No; No; yes”.
With FLGTRVTRV the “presence of the PCR product” value ([1]; LUAD tumor cell line H1975) was “No; No; No; No; No; No”.
FLIVAEILI was tested, and the “presence of the PCR product” value ([1]; LUAD tumor cell line H1975) was “No; No; No; No; No; No”.
With MLMKTVWQA the “natural expression and presentation of peptide by H1650 LUAD tumor cell line” value (H1650 cell line) was “naturally expressed and presented”, the “presence of the PCR product” value ([1]; LUAD tumor cell line A549) was “Yes” and the “presence of the PCR product” value ([1]; LUAD tumor cell line H1299) was “No”. For the same sequence, the “presence of the PCR product” value ([1]; LUAD tumor cell line H1650) was “No”, the “presence of the PCR product” value ([1]; LUAD tumor cell line H1975) was “Yes” and the “presence of the PCR product” value ([1]; LUAD tumor cell line H2052) was “No”. The “presence of the PCR product” value ([1]; LUAD tumor cell line HCC827) was “Yes”.
In the case of RLADHLSFC, the “presence of the PCR product” value ([1]; LUAD tumor cell line H1975) was “No; Yes; Yes; No; No; No”.
With RLLHLESFL the “presence of the PCR product” value ([1]; LUAD tumor cell line H1975) was “Yes; Yes; Yes; Yes; Yes; Yes”.
YLPYFLKSL was tested, and the “presence of the PCR product” value ([1]; LUAD tumor cell line H1975) was “Yes; No; No; Yes; No; Yes”.
